Laboratory results reported in paper PMC10163288.
This is one part of the list.

B1: il10ra_site1_sap_18_mot_HHH_b2_07488_000000216_0001_1_17_H_._HHH_b1_00600_af2_0001_0000500021_0000002_0_0001 (protein)
chain: SSSSDWEEMLEWMAHSLELAEELNDPKYIRNAARFLLRAAEQNNDEEIFERAERILKEVNSSSSS
B2: il10ra_site1_normal_mot_HHH_b1_01879_000000050_0001_1_18_H_._HHH_b1_03808_0002_0000400012_0000001_0_af2pred_0001 (protein)
chain: SSSSDDEVEELLQILAQLSARNPEFAEELFEVLVEVYRLLANGNPEEARRLAEEAIERVEKSSSS
B3: il10ra_site1_normal_mot_HHH_b2_00108_000000012_0001_38_56_H_._HHH_b2_04021_0001_0000700049_0000001_0 (protein)
chain: SSSSTEEIASRFHEELLRELLKAGDEEQLEATLEAAKALAEQLNDEELEEEVEEILRELKSSSSS
B4: il10ra_site1_normal_mot_HHH_b2_06979_000000158_0001_42_57_H_._HHH_b1_02740_0001_0000100006_0000001_0 (protein)
chain: SSSSNESSQLVREAARRARQLFEEGNPEEARRLLEEALEELEELGNELAVLNIRFLLRDLSSSSS
B5: il10ra_site1_normal_mot_HHH_b2_04050_000000291_0001_1_20_H_._HHH_b2_03360_0001_0000200021_0000002_0 (protein)
chain: SSSSSEEQRLIELSLELARALIRGDEEEARELVEEAKELAEELGNEEALRVLEDLEQVLKSSSSS
B6: il10ra_site1_sap_20_mot_HHH_b2_00564_af2_000000012_0001_18_34_H_._HHH_b2_07578_af2_0001_0000100001_0000001_1_0001 (protein)
chain: SDLSHEFFRLSKEALERAAHLSPEQRQAVARAIMEALRLAFNAKSEEEVEEVLELLEKVVKEVIS
B7: il10ra_site1_normal_mot_HHH_b2_03220_af2_000000223_0001_23_40_H_._HHH_b2_01401_af2_0001_0000100009_0000001_0 (protein)
chain: SSSSSEEAEEIWEIIREALELLAQGDKEEAKQLLEEALELAEELGSRVLRHVIEFALRQVSSSSS
B8: il10ra_site1_normal_mot_HHH_b2_02053_af2_000000006_0001_3_19_H_._HHH_b1_05925_0001_0000100008_0000001_0 (protein)
chain: SSSSDTEELYELLRRALELRAQGNPEEAEELLEEALRLARELGSELFVFVIEHLLRLLEGSSSSS
B9: il10ra_site1_sap_24_mot_HHH_b2_06857_af2_000000179_0001_42_54_H_._HHH_b1_04179_af2_0001_0000200006_0000001_1_0001 (protein)
chain: SSSSSDATRELYRLSKEAAELLAEGNPEEAQRVAEEAFELAEEAGNRVLLHAIEHLLRDISSSSS
B10: il10ra_site1_normal_mot_HHH_b1_02397_af2_000000085_0001_39_57_H_._HHH_b2_07534_0001_0000600062_0000001_1 (protein)
chain: SSSSDEEEEELRRLLEEVEELLRRGDPERAAEVTQRLLRFIFRLRDEEALHELHELVARHKSSSS
B11: il10ra_site1_normal_mot_HHH_b2_06864_af2_000000190_0001_1_20_H_._HHH_b1_07149_0001_0000300031_0000001_0 (protein)
chain: SSSSSDAQELFRLAREAAEELKKLSEEEAEELVQEILRILERHGDELTARALRFFVRLVNSSSSS
B12: il10ra_site1_sap_21_mot_823161b9c8d27cd62067cdb724e47ff0_0001_000000061_0001_17_32_H_._71fa3b3ce36e4cc21c7110f2bf27d1ce_0001_0001_0000100005_0000001_0_0001 (protein)
chain: SSSSAEEEFERVARAVEEASEAWERGDPEEAREIIEEALELAREANDEITVRALEHFLKALSSSS
B13: il10ra_site1_sap_16_mot_HHH_b1_04514_000000156_0001_1_18_H_._HHH_b2_08139_af2_0001_0000600025_0000001_0_0001 (protein)
chain: SSSSDLEQRALRLAQEAFEAALRGNPEEAEEILEEAEEIAERAGSERLLRMIESLLRAVRSSSSS
B14: il10ra_site1_normal_mot_ems_3hM_3349_af2_000000150_0001_25_42_H_._fc02e248b26fd4a305a7b86d1b4b774b_0001_af2_0001_0000200007_0000002_0 (protein)
chain: SEEEEELARLLKEGDPRAEEEIEELIAELLGVPPELARLALEQQEEQNGDPEEAVKAALASARAV
B15: il10ra_site1_sap_17_mot_HHH_b1_00456_000000263_0001_1_17_H_._cd286a6fd732cb1c2c19163a91e0928f_0001_1_0001_0000400004_0000001_0_0001_af2pred_dldesign_0_af2pred (protein)
chain: SSSSSAAEELLTAASQEMLRLRKAGDAASAAALTAAATAELTALGDADAVRQLQILQDYLLSSSS
B16: il10ra_site1_normal_mot_HHH_b1_02809_af2_000000277_0001_40_57_H_._HHH_b2_07682_0001_0000300022_0000001_0_af2pred_0001 (protein)
chain: SSSSSRDEEAVRRALRLAKWLREAGDEEAVRKYLKAAKILAKRIGDPELEELVERVEEHLSSSSS
B17: il10ra_site1_sap_21_mot_HHH_b1_03314_af2_000000278_0001_42_55_H_._HHH_b1_03442_0001_0000200019_0000001_0_0001 (protein)
chain: SSSSDERFEIAEKAIEEAIELWEQGNEEEARELIEEALEELRKAGDWAAVKALEHLLRVLSSSSS
B18: il10ra_site1_sap_19_mot_HHH_b2_07488_000000216_0001_1_17_H_._HHH_b1_03958_af2_0001_0000500023_0000001_0_0001 (protein)
chain: SSSSSDIAEIAQEAIHLAILLGDEETLQEIWELIHLYAEKGDPEIEEALEELLEELKERGSSSSS
B19: il10ra_site1_normal_mot_HHH_b1_05021_af2_000000076_0001_42_56_H_._HHH_b1_04652_0001_0000200016_0000001_0_af2pred_0001 (protein)
chain: SSSSDDEEVLKEVKELMEEALRIEDPEERRKVLEEAEELAEENGDELLLWQIRYLAKLLNSSSSS
B20: il10ra_site1_normal_mot_HHH_b1_08629_000000017_0001_1_20_H_._HHH_b2_08380_0001_0000100010_0000001_0 (protein)
chain: SSSSSDELFEKVKKAYEEARELYENGNPEEARRLLEEILEEAEELGNVAVEWSIRHALRILSSSS
B21: il10ra_site1_normal_mot_HHH_b2_01235_000000294_0001_1_18_H_._HHH_b1_00824_0001_0000500046_0000002_0 (protein)
chain: SSSSSAQELYELSRRASELDLEGNPEEAERLLEEAIKLAEELGNETLLATLRNLLRLIERSSSSS
B22: il10ra_site1_normal_mot_HHH_b2_05343_000000235_0001_19_35_H_._HHH_b2_05319_0001_0000200016_0000001_0 (protein)
chain: SSSSSSEVEERVEELLEEARHVSAQERFKLLREAIELATENRNQELARLVIRVIRELLESSSSSS
B23: il10ra_site1_sap_18_mot_HHH_b1_03314_af2_000000278_0001_42_55_H_._HHH_b1_08718_af2_0001_0001700043_0000001_0_0001_af2pred_0001 (protein)
chain: SELEEIAERALRLGDEEVQLVAAALLLAEQANSPRLKEAAEELVERLVEKGNPLAEELLRLIKEK
B24: il10ra_site1_normal_mot_HHH_b1_06914_000000280_0001_1_18_H_._HHH_b2_04176_af2_0001_0000300012_0000001_0 (protein)
chain: SSSSDEEVYELLRRAAELLAQGNLEEAEKVLEEAEQLARELNNPVLLFNIRLLLRDVEEAGSSSS
B25: il10ra_site1_normal_mot_HHH_b2_00441_000000147_0001_1_18_H_._HHH_b2_07657_0001_0000100003_0000001_0 (protein)
chain: SSSSDLEEYVELTIRFAEALAESGDPEAARALLRLILDSLRLNNNEELIEEVEEALERLEKSSSS
B26: il10ra_site1_sap_20_mot_HHH_b2_02497_000000220_0001_1_20_H_._74d410084df75ce7804895407938b8fc_0001_0001_0000200006_0000001_0_0001 (protein)
chain: SSSSSTTHELYELLREAIELRAEGNPEEAERVLEEAEELAREAGNPVFEFNVRAIRKAINSSSSS
B27: il10ra_site1_sap_20_mot_HHH_b1_05326_000000242_0001_1_20_H_._HHH_b2_05097_af2_0001_0000500014_0000002_0_0001 (protein)
chain: SSSSSSVEELAEEAQELAEERGDREAQDLVEAIKRLARQGALDPEFARISLELLIELLRESSSSS
B28: il10ra_site1_normal_mot_HHH_b2_07488_000000216_0001_1_17_H_._20bd334181f53d5e88893876e50d2750_0001_af2_0001_0000300009_0000002_0 (protein)
chain: DPEVEEVLEEVKEEFKDDPKARLAVRFAEALLEAGNPKAALSLLRQLAQALGDPELLRKVEELLK
B29: il10ra_site1_sap_27_mot_513c16ae44941e68898e0f7c259e5a28_0001_1_000000056_0001_35_50_H_._HHH_b2_03708_0001_0000400029_0000001_1_0001 (protein)
chain: SSSSSDEEERLEELLEEVEEAIREGDDEKALRLIQEALRIVFQLGDEEALRRLFRLTRKLSSSSS
B30: il10ra_site1_normal_mot_HHH_b2_02537_000000065_0001_1_20_H_._HHH_b1_01288_0001_0000200020_0000001_1 (protein)
chain: SSSSSTDEEFKEVKRLIELLAEARSEEEREEIEELMEELQKHVNEIFRFALEHFLRLQRSSSSSS
B31: il10ra_site1_normal_mot_HHH_b2_02337_000000026_0001_38_52_H_._HHH_b1_02031_af2_0001_0000400017_0000001_0 (protein)
chain: SSSSSDEEEEEVRELLEEAKRIPDPQERARILQEATHIAIQLGDAELLKLVWEVVQKLASSSSSS
B32: il10ra_site1_normal_mot_HHH_b1_06914_000000280_0001_1_18_H_._HHH_b1_05917_0001_0000100005_0000001_0 (protein)
chain: SSSSTEEDERIYELLRRALEIDDEEEARELVEEAEELAEERDSKVLLFNIRFLLRTLREESSSSS
B33: il10ra_site1_normal_mot_HHH_b2_00837_af2_000000287_0001_40_54_H_._HHH_b2_04396_af2_0001_0000400016_0000001_0 (protein)
chain: SSSSDEEEELEELLRELKKLLEEGDIEELARLAAEAVRLAFRLGDAETLKEIWELVRRVKSSSSS
B34: il10ra_site1_sap_28_mot_HHH_b2_00475_000000002_0001_44_57_H_._HHH_b2_06507_0001_0000400024_0000001_0_0001_af2pred_0001 (protein)
chain: SSSSSEEEEIRRLLLRARQLLLKGDPEEAEELLREAQELAEELGDPQLREFVKLVASRLRESSSS
B35: il10ra_site1_sap_24_mot_HHH_b1_07743_af2_000000164_0001_42_55_H_._HHH_b2_05048_0001_0000500019_0000002_1_0001 (protein)
chain: SSSSDEEERALELIVKAFRAALRGNPEEAEELLEEAKELLEKAGDERLLEMVKDLEKVLESSSSS
B36: il10ra_site1_sap_16_mot_HHH_b2_05005_af2_000000217_0001_43_56_H_._HHH_b1_02310_af2_0001_0000200007_0000002_0_0001 (protein)
chain: SSSSEEERLEKLLEEIEELIKEGDLEEALQVLWELVKLAAELNDEEILRKVLELLKELLERSSSS
B37: il10ra_site1_sap_20_mot_HHH_b2_02537_000000065_0001_1_20_H_._HHH_b1_03944_0001_0000100001_0000001_0_0001_af2pred_dldesign_0_af2pred (protein)
chain: SSSSAAERAEVDALLAEARRLKDPLLRSHTLLQAYGLANKINDPEAVARVKEVALALAAESSSSS

Target: il10ra, Q13651
Assay: yeast display titration

Apparent Kd, inactive:
B1 no binding seen, B2 no binding seen, B3 no binding seen, B4 no binding seen, B5 no binding seen, B6 no binding seen, B7 no binding seen, B8 no binding seen, B9 no binding seen, B10 no binding seen, B11 no binding seen, B12 no binding seen, B13 no binding seen, B14 no binding seen, B15 no binding seen, B16 no binding seen, B17 no binding seen, B18 no binding seen, B19 no binding seen, B20 no binding seen, B21 no binding seen, B22 no binding seen, B23 no binding seen, B24 no binding seen, B25 no binding seen, B26 no binding seen, B27 no binding seen, B28 no binding seen, B29 no binding seen, B30 no binding seen, B31 no binding seen, B32 no binding seen, B33 no binding seen, B34 no binding seen, B35 no binding seen, B36 no binding seen, B37 no binding seen
